# Several values for one entry are separate records, joined by “and”; a condition that tells them apart may be missing. Equal entries are not always repeated. Hit rate of the full screen: of about 300,000 compounds, about 5,400 (1.8%) were called active. Inconclusive results, whose numbers are uncertain, are shown with a selection of clear calls. Calls come from the whole dose curve; tested in HEK293 cells. Where the call is inconclusive, the potency comes from a doubtful curve fit.
# Experiment: qHTS for inhibitors of binding or entry into cells for Marburg Virus
# Settings: Marburg virus pseudotyped entry inhibition, cell reporter; activity change, negative = inhibition: at 37.8 µM (top of the series) unless noted
# % is set by controls: 0 for no effect and ±100 for the full control effect; potency is the fitted concentration of half-maximal effect.
SMILES,Potency,"activity change, negative = inhibition"
CCCCNC(=S)N=Nc1c(O)[nH]c2ccccc12,"inconclusive: 35.5 µM [inhibitor, single point]",
CN(C(=O)CSc1nc2ccc(NC(=O)COc3ccc(Cl)cc3)cc2s1)c1ccccc1,"inconclusive: 35.5 µM [inhibitor, single point]",
CCCOc1cccc(NC(=O)c2c(-c3ccccc3Cl)noc2C)c1,"inconclusive: 12.6 µM [inhibitor, partial curve, poor fit]",
C/C=C/C(=O)Nc1cccc(C(F)(F)F)c1,"inconclusive: 3.98 µM [activator, full curve, poor fit]",
CCOC(=O)CNC(=O)Cn1cnc2c(nnn2-c2ccc(F)cc2)c1=O,"inconclusive: 13 µM [activator, partial curve, poor fit]",
CC(c1nccs1)N(C)C(=O)CCc1nnc(CCc2ccccc2)o1 (stereo unspecified),"inconclusive: 31.6 µM [activator, single point]",
CN(Cc1ccccc1)C(=O)c1ccc2c(c1)N(Cc1ccccc1F)C(=O)c1ccccc1S2(=O)=O,"inconclusive: 12.6 µM [inhibitor, single point]",
CCN(CC)C(=O)CSc1nc2c(sc(=S)n2-c2ccccc2OC)c(=O)n1-c1ccccc1,"inconclusive: 10 µM [inhibitor, partial curve, poor fit]",
COc1ccc(C2=NN(C(=O)CCC(=O)O)C(c3ccccc3F)C2)cc1 (stereo unspecified),,inactive: 18.2%
FC(F)(F)c1cc(NC(=S)NC23CC4CC(CC(C4)C2)C3)cc(C(F)(F)F)c1,"inconclusive: 0.841 µM [inhibitor, single point]",
COc1ccc(-c2cc(C(=O)Nc3c(C)nn(Cc4ccc(Cl)cc4)c3C)no2)cc1,active: 23.1 µM,
COC(=O)[C@H](Cc1c[nH]c2ccccc12)NC(=O)Nc1ccccc1OC,"inconclusive: 0.447 µM [inhibitor, partial curve, poor fit]",
COc1ccc(OC)c(NC(=O)Cn2cnc3ccc(S(=O)(=O)N4CCC(C)CC4)cc3c2=O)c1,"inconclusive: 6.31 µM [inhibitor, partial curve, poor fit]",
CCOc1ccc(C(=O)NC(=S)Nc2cc(C)ccn2)cc1[N+](=O)[O-],,inactive: 4.53%
CCOC(=O)c1ccc(NS(=O)(=O)c2ccc3c(c2)n(C)c(=O)n3C)cc1,"inconclusive: 35.5 µM [inhibitor, single point]",
c1ccc(Cc2c[nH]c3ccccc23)cc1,"inconclusive: 1 µM [inhibitor, partial curve, poor fit]",
CCN(CC)c1ccc(S(=O)(=O)N2CCOCC2)cc1NC(=O)Nc1ccccc1,"inconclusive: 7.08 µM [inhibitor, partial curve]",
COc1cccc(CN(C(=O)c2oc3cc(C)ccc3c2C)C2CCS(=O)(=O)C2)c1 (stereo unspecified),"inconclusive: 35.5 µM [inhibitor, partial curve, poor fit]",
CCN(CC)CC(C)CNC(=O)c1cc(-c2ccc(Br)s2)nc2ccccc12 (stereo unspecified),"inconclusive: 35.5 µM [inhibitor, single point]",
COCCN(C(=O)C1CCN(C(=O)c2ccccc2C)CC1)c1c(N)n(CC(C)C)c(=O)[nH]c1=O,,inactive: 6.23%
COc1cc2c(cc1OC)C1(CCCC1)C(N)=C2C#N,"inconclusive: 35.5 µM [inhibitor, single point]",
CN1C(=O)N(C)c2ccc(C=O)c3cccc1c23,"inconclusive: 3.16 µM [inhibitor, full curve, poor fit]",

SMILES,Potency,"activity change, negative = inhibition"
Cn1nc(-c2ccc(OCC(=O)N3CCN(Cc4ccccc4)CC3)cc2)c2ccccc2c1=O,active: 8.2 µM,
COc1cc(C#N)ccc1OCC(=O)N1CCc2ccccc2C1,,inactive: -0.368% [at 46.1 µM]
CCCCCCn1c(=O)c(C(=O)Nc2cnccn2)c(O)c2ccccc21,"inconclusive: 1.12 µM [inhibitor, partial curve, poor fit]",
Cc1cc(NC(=O)c2ccc(F)cc2)n(-c2ccccn2)n1,,inactive: -16.3% [at 46.1 µM]
CCOC(=O)c1ccc(N=C(CC)c2c(O)n(C)c(=O)n(C)c2=O)cc1,"inconclusive: 0.199 µM [inhibitor, full curve, poor fit]",
O=C(Nc1cccc(Cl)c1N1CCOCC1)c1cccnc1Cl,"inconclusive: 1.26 µM [inhibitor, single point]",
CCCOC(=O)CCn1c(=S)oc2ccccc21,,inactive: 25.6% [at 46.1 µM]
O=C(NNC(=O)c1ccccc1Cl)c1ccccc1Cl,,inactive: 28% [at 46.1 µM]
Cc1cccc(NC(=O)C2CCN(S(=O)(=O)c3ccc(F)cc3)CC2)c1C,"inconclusive: 0.562 µM [inhibitor, full curve, poor fit]",
CC1(C)Cn2c(nnc2-c2ccccc2)S1,"inconclusive: 0.259 µM [inhibitor, single point]",
COc1cc(CCC(=O)N2CCN(c3ncccn3)CC2)cc(OC)c1OC,,inactive: 1.33% [at 46.1 µM]
Cc1ccc(N(CC(=O)NCCc2ccccc2)C(=O)c2csnn2)cc1,,inactive: -7.74% [at 46.1 µM]
CCN(CC)c1ccc(N=Cc2ccccc2[N+](=O)[O-])cc1,"inconclusive: 20.6 µM [inhibitor, single point]",
CCCCNC(=O)c1nn(-c2ccc(CC)cc2)nc1CO,"inconclusive: 4.47 µM [activator, full curve, poor fit]",
O=C(COc1cccnc1[N+](=O)[O-])Nc1ccc(F)cc1,"inconclusive: 10 µM [activator, partial curve]",
Cc1nn(C)c2ncc(C(N)=O)c(Oc3ccc(Cl)cc3)c12,,inactive: -0.442%
COc1ccc(/C=C/C(=O)NC(CCSC)C(=O)O)cc1 (stereo unspecified),"inconclusive: 5.62 µM [activator, single point]",
CCCc1c(NC(=O)Nc2ccc(F)cc2)cnn1-c1ccc(Cl)cc1,"inconclusive: 7.94 µM [inhibitor, partial curve, poor fit]",
CCN(c1ccc(NC(=O)c2cccc(S(=O)(=O)N3CCN(C)CC3)c2)cc1)C(C)C,"inconclusive: 25.1 µM [inhibitor, single point]",
O=C(Nc1ccsc1C(=O)NC1CCCCC1)c1ccc(F)cc1,"inconclusive: 0.092 µM [inhibitor, partial curve, poor fit]",
O=C(NCCCN1CC1)Nc1cccc2ccccc12,"inconclusive: 14.1 µM [inhibitor, partial curve]",
COc1cc(CN(C(=O)COc2ccc(C)cc2)c2ccccn2)cc(OC)c1OC,,inactive: -15.9% [at 46.1 µM]

SMILES,Potency,"activity change, negative = inhibition"
O=C(Nc1nc2ccsc2c(=O)s1)c1ccc(F)cc1,"inconclusive: 0.794 µM [activator, partial curve, poor fit]",
COc1ccc(/C=C(\NC(=O)/C=C/c2ccco2)C(=O)NCCc2nc3ccccc3[nH]2)cc1,"inconclusive: 1.26 µM [activator, partial curve, poor fit]",
COc1ccc(-n2c(N)c(C(=O)NCc3cccnc3)sc2=S)cc1,"inconclusive: 23.1 µM [activator, single point]",
CCCCn1c(SCC(=O)Nc2cc(C)on2)nc2ccccc2c1=O,,inactive: 13.8%
CN(c1ccc(O)cc1)c1nc(-c2ccccc2)cs1,"inconclusive: 29.1 µM [inhibitor, single point]",
O=S(Cc1ccc(Br)cc1)Cc1nnc(SCc2c(F)cccc2Cl)n1-c1ccccc1 (stereo unspecified),"inconclusive: 15.8 µM [inhibitor, partial curve, poor fit]",
CCc1nc2c(oc3ccccc32)c(=O)[nH]1,"inconclusive: 7.08 µM [activator, full curve]",
O=c1c2cc(NC(=S)N3CCCCCC3)ccc2nc2n1CCCCC2,"inconclusive: 3.55 µM [activator, partial curve, poor fit]",
Cc1ccc(-c2ccc(C(=O)NCc3ccccc3)o2)c2ccccc12,,inactive: 34%
O=S(=O)(Cc1ccc(Cl)cc1)c1ncc(CO)n1Cc1ccccc1,"inconclusive: 10 µM [inhibitor, partial curve, poor fit]",
CC1(C(=O)O)C2CCC(O2)C1(C)C(=O)O (stereo unspecified),active: 6.31 µM and active: 4.11 µM,
CCOC(=O)C1(CCCc2ccccc2)CCN(C(=O)c2cc(C)nc(C)n2)CC1,"inconclusive: 6.31 µM [activator, single point]",
O=c1oc2ccccc2cc1-c1nc2c(s1)CCc1ccccc1-2,inactive,
CCCC1=Nc2cc(C(=O)NC3CCCC3)ccc2Sc2ccc(C)cc21,"inconclusive: 1.58 µM [inhibitor, partial curve, poor fit]",
COc1cccc(-c2nc(NCC3CCCO3)c3ccccc3n2)c1O (stereo unspecified),"inconclusive: 3.55 µM [inhibitor, partial curve, poor fit]",
Cc1cccc(C(=O)N[C@H](C(=O)OCc2cc(=O)n3c(n2)sc2ccccc23)C(C)C)c1,"inconclusive: 2.51 µM [activator, single point]",
COc1cccc(OC)c1NC(=O)C1CCCN1C(=O)Nc1cccc(Cl)c1 (stereo unspecified),"inconclusive: 11.2 µM [inhibitor, partial curve, poor fit]",
NC(=O)c1sc2nc3c(c(-c4ccc(Cl)cc4)c2c1N)CCCC3,"inconclusive: 3.98 µM [inhibitor, full curve, poor fit]",
COc1ccc(C(NC(=O)/C=C/c2ccco2)c2ccc(OC)cc2)cc1,"inconclusive: 3.16 µM [inhibitor, single point]",
Cn1c(=O)n(-c2ccc3c(c2)OCO3)c2nc(-c3ccccc3)nc(C(N)=O)c21,"inconclusive: 6.31 µM [inhibitor, partial curve, poor fit]",
COc1ccc(C)cc1NC(=O)c1ccc2c(SCC(=O)O)c3c(nc2c1)CCCC3,inactive,

# Exported as tab-separated lines: entries from further up.
SMILES	Potency	activity change, negative = inhibition
CCCCNC(=S)N=Nc1c(O)[nH]c2ccccc12	inconclusive: 35.5 µM [inhibitor, single point]	
C/C=C/C(=O)Nc1cccc(C(F)(F)F)c1	inconclusive: 3.98 µM [activator, full curve, poor fit]	
COc1ccc(C2=NN(C(=O)CCC(=O)O)C(c3ccccc3F)C2)cc1 (stereo unspecified)		inactive: 18.2%
CCOC(=O)c1ccc(NS(=O)(=O)c2ccc3c(c2)n(C)c(=O)n3C)cc1	inconclusive: 35.5 µM [inhibitor, single point]	
c1ccc(Cc2c[nH]c3ccccc23)cc1	inconclusive: 1 µM [inhibitor, partial curve, poor fit]	
COc1cccc(CN(C(=O)c2oc3cc(C)ccc3c2C)C2CCS(=O)(=O)C2)c1 (stereo unspecified)	inconclusive: 35.5 µM [inhibitor, partial curve, poor fit]	
CCN(CC)c1ccc(N=Cc2ccccc2[N+](=O)[O-])cc1	inconclusive: 20.6 µM [inhibitor, single point]	
O=C(NCCCN1CC1)Nc1cccc2ccccc12	inconclusive: 14.1 µM [inhibitor, partial curve]	
COc1ccc(/C=C(\NC(=O)/C=C/c2ccco2)C(=O)NCCc2nc3ccccc3[nH]2)cc1	inconclusive: 1.26 µM [activator, partial curve, poor fit]	
CN(c1ccc(O)cc1)c1nc(-c2ccccc2)cs1	inconclusive: 29.1 µM [inhibitor, single point]	
O=c1c2cc(NC(=S)N3CCCCCC3)ccc2nc2n1CCCCC2	inconclusive: 3.55 µM [activator, partial curve, poor fit]	
O=S(=O)(Cc1ccc(Cl)cc1)c1ncc(CO)n1Cc1ccccc1	inconclusive: 10 µM [inhibitor, partial curve, poor fit]	
COc1cccc(OC)c1NC(=O)C1CCCN1C(=O)Nc1cccc(Cl)c1 (stereo unspecified)	inconclusive: 11.2 µM [inhibitor, partial curve, poor fit]	
COc1ccc(C(NC(=O)/C=C/c2ccco2)c2ccc(OC)cc2)cc1	inconclusive: 3.16 µM [inhibitor, single point]	

# From PubChem BioAssay AID540276 (National Center for Advancing Translational Sciences (NCATS), 2011)
